Data taken from article PMC6547421.
For at least one entry, the source does not settle the construct or the ends of the probe. At least one verdict rests on a figure or table, not on a statement of the authors.

Chains of the proteins cited; added tags and fusions are not shown. Residues count along the entry.
UniProt Q9Y2C4, 42-368 H140A/C299A: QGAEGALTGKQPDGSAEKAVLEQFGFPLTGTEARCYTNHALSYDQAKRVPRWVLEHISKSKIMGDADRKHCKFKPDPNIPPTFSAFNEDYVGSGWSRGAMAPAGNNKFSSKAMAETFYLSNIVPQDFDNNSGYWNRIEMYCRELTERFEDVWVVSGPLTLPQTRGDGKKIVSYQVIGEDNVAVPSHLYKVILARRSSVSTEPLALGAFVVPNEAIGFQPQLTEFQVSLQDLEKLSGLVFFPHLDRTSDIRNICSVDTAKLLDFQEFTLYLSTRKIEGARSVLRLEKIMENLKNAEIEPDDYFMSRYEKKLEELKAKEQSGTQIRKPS

Target: ExoG-H140A/C299A (Homo sapiens) (UniProt Q9Y2C4)
Test: fluorescence polarization
Conditions: 2.5 mM Mg2+, no notable change vs H140A, Kd only in figure, FP: 10 nM FAM substrate, 10 mM HEPES pH 7.4, 150 mM NaCl, 2.5 mM MgCl2, temperature not stated, recombinant protein, protein details: N-terminal His, label: 3'-FAM strand 1, 5'-biotin strand 2

GCTTAACGCTGACTCGCTAC / GTAGCGAGTCAGCGTTAAGCACTATCATAGCCATCTGCCATTACTG [DNA/DNA]
binding result (5'-phosphate on strand 1): binds

GCTTAACGCTGACTCGCTAC / GTAGCGAGTCAGCGTTAAGCACTATCATAGCCATCTGCCATTACTG [R2-DNA/DNA]
binding result (strand 1 nt 1-2 (GC) are ribonucleotides, rest DNA, 5'-phosphate on strand 1): binds

GCUUAACGCUGACUCGCUAC / GTAGCGAGTCAGCGTTAAGCACTATCATAGCCATCTGCCATTACTG [RNA/DNA]
binding result (strand 1 RNA with 5'-phosphate, strand 2 DNA, DNA:RNA hybrid): binds
